This is an account of results in doi:10.1101/2022.09.12.507607.

By UniProt entry, the sequences of proteins in these tests, tags left out.
UniProt Q6PDQ2: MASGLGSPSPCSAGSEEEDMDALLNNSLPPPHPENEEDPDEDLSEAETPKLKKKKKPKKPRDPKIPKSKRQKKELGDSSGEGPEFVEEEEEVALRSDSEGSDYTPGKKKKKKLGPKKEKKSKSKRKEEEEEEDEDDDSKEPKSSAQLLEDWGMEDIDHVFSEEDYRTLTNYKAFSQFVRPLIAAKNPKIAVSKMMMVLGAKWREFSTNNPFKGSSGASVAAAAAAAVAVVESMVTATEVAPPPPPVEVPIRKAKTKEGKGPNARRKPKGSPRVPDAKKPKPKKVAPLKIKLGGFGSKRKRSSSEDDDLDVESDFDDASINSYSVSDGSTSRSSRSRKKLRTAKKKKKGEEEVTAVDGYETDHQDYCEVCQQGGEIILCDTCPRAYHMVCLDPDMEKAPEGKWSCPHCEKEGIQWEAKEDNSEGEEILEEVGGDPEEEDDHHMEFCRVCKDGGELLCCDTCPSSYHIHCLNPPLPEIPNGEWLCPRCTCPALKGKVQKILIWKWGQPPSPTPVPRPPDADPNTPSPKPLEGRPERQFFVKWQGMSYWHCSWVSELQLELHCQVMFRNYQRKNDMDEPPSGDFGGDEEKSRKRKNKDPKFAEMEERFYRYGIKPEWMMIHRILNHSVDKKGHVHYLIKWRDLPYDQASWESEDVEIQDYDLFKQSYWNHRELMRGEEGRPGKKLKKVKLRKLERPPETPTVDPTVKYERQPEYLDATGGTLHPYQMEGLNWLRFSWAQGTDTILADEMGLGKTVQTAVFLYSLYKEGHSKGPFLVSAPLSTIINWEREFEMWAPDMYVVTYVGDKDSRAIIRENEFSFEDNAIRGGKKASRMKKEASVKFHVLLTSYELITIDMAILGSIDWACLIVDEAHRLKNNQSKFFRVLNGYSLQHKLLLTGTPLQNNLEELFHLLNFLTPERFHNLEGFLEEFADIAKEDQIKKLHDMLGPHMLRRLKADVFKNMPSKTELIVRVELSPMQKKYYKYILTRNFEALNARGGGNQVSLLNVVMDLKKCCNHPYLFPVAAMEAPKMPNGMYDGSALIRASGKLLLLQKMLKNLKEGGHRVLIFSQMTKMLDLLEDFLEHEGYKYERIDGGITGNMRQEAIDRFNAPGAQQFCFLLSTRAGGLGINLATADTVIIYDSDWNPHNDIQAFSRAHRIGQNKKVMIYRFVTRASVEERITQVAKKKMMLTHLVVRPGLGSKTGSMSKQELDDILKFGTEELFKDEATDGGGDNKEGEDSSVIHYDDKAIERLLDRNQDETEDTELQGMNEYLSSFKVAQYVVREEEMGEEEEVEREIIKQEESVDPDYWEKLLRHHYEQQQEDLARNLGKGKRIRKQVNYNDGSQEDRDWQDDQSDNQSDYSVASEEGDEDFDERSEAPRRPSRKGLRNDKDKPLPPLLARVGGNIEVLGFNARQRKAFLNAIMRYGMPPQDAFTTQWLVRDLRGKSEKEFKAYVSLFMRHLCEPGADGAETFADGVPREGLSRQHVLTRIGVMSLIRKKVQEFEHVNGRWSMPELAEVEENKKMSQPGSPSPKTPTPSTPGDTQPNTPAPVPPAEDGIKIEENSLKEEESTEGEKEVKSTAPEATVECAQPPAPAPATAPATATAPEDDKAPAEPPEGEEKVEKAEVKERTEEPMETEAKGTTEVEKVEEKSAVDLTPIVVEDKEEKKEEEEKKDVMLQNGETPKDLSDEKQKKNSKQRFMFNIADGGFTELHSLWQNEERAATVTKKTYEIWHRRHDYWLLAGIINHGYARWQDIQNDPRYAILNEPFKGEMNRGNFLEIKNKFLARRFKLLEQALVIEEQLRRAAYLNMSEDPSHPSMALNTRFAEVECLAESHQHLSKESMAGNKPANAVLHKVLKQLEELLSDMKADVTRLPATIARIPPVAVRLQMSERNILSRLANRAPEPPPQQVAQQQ
UniProt A2BH40: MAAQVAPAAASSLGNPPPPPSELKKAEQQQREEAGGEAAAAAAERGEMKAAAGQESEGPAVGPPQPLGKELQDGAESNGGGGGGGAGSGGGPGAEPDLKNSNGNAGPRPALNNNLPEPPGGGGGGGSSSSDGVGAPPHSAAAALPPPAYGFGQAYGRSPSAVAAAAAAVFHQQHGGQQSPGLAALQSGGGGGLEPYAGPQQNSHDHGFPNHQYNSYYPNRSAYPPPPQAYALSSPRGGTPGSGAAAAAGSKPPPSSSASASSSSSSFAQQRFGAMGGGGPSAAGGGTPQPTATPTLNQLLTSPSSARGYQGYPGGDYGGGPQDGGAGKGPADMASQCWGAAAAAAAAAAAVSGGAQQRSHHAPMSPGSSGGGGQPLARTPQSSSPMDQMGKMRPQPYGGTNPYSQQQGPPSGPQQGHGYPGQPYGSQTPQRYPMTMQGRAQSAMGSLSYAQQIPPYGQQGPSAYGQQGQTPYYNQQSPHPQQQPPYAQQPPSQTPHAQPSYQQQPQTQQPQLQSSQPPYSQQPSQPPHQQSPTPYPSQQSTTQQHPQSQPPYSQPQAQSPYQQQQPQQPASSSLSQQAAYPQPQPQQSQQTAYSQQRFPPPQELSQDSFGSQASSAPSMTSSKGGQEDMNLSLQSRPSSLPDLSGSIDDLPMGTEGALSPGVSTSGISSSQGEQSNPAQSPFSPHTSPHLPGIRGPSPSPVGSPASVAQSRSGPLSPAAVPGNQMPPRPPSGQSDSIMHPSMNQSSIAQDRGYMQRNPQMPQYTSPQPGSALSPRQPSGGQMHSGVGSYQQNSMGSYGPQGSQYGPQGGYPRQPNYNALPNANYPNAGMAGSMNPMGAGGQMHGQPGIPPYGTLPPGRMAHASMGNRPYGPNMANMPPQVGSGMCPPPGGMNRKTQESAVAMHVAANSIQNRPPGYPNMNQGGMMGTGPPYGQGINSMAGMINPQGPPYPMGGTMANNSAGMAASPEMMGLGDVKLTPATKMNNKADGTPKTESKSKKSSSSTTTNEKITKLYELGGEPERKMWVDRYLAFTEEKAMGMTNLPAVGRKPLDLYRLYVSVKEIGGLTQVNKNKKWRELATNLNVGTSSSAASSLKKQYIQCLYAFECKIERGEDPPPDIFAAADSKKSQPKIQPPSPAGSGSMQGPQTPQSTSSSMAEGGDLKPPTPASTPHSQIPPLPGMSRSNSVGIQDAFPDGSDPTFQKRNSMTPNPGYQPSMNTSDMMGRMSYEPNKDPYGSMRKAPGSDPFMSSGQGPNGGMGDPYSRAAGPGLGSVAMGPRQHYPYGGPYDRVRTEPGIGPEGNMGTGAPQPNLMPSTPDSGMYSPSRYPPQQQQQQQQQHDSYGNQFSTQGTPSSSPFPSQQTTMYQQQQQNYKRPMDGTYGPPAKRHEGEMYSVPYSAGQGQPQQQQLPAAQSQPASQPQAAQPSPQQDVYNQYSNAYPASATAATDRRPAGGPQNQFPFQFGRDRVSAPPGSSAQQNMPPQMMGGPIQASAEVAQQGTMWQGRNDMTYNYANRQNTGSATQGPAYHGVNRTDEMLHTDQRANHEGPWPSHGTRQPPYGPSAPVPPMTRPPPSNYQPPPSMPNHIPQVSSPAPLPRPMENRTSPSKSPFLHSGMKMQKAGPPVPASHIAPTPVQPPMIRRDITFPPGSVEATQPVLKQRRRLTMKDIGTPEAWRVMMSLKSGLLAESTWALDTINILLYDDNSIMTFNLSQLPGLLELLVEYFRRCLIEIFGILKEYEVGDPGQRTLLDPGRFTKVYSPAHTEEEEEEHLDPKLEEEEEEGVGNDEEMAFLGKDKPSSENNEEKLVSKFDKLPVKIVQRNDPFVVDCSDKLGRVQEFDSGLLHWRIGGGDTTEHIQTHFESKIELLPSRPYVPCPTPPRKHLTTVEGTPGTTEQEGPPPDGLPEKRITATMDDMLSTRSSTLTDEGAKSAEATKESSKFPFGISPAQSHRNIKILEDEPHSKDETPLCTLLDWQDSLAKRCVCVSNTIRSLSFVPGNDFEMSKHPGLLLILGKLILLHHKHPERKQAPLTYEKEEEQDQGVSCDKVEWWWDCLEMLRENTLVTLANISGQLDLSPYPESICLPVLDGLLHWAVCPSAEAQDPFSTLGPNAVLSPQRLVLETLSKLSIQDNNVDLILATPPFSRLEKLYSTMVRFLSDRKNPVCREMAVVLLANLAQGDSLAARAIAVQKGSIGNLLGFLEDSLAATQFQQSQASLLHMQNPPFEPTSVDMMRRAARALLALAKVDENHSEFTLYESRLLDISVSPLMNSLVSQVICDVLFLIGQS
UniProt O54941: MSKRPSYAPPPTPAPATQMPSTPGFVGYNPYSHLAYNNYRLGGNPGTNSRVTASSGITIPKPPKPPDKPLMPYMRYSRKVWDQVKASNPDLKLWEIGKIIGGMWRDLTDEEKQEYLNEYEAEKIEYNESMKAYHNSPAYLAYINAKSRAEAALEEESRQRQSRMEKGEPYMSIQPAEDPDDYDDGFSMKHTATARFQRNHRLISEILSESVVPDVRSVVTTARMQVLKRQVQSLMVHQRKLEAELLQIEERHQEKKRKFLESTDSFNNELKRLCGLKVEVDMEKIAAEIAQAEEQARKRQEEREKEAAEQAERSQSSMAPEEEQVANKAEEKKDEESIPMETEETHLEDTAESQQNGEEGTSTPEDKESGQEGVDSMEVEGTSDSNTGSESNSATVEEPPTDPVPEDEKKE
UniProt Q6P9Z1: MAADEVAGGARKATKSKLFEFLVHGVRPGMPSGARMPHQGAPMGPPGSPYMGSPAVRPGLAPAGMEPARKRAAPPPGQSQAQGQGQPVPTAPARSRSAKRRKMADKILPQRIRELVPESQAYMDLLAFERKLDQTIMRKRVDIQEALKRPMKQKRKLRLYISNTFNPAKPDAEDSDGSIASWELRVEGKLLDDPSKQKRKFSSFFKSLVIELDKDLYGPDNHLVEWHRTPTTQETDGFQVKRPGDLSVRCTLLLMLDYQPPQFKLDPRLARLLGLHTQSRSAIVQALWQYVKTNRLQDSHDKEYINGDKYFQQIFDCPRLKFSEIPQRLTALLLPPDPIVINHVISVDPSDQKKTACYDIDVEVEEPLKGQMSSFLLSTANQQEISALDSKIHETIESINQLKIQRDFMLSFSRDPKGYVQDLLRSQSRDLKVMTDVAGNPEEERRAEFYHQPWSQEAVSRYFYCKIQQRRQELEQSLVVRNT
UniProt P97496: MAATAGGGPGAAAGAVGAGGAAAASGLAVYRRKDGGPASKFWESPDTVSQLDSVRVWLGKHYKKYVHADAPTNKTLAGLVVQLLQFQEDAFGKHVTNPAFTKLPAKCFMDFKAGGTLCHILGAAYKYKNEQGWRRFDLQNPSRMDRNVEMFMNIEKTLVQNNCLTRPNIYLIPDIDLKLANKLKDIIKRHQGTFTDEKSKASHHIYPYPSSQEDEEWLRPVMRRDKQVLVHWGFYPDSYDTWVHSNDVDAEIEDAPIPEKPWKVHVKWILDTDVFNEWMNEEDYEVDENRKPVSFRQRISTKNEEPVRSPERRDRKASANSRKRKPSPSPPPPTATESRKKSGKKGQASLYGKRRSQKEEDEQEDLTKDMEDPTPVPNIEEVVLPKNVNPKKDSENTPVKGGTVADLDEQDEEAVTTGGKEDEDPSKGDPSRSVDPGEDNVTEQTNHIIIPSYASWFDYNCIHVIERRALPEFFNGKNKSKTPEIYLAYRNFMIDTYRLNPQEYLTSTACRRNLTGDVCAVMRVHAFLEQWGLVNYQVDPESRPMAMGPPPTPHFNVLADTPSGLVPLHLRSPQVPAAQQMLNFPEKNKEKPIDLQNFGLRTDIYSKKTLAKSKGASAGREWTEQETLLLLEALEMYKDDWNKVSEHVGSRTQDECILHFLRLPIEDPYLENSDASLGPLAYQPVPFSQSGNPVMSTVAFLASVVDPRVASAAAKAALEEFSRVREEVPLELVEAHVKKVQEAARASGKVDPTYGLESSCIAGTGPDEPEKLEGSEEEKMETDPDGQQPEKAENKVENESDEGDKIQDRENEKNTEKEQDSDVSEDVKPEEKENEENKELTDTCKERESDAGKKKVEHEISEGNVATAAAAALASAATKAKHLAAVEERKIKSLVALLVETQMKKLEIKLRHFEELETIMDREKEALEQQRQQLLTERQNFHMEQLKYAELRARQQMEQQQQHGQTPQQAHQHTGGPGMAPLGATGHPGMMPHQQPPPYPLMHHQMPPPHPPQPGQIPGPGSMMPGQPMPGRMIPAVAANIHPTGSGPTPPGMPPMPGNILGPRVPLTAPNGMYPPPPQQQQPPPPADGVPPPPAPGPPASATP

These are yes or no findings as the source states them, for the method shown. In cells and extracts the contact can be indirect. Here binding means that the protein was enriched with, or labelled near, the bait; the list need not be complete.

This assay addresses chromodomain helicase DNA-binding protein 4 (CHD4), wild type, mouse (mouse (endogenous in embryonic hearts)) (UniProt Q6PDQ2). The experiment in a line: affinity purification with mass spectrometry.
Turning to ARID1A (from UniProt A2BH40 1-2283), the binding result was “binds”.
In the case of ARID2 (from UniProt E9Q7E2 1-1828) it was “binds”; in that of BAF57 (from UniProt O54941 1-411), “binds”; in that of BAF60C (from UniProt Q6P9Z1 1-483), “binds”.
In the case of BAF155 (from UniProt P97496 1-1104) it was “binds”.
